These results are taken from publication PMC4860773.

No constants are given. Whether binding was seen depends on the method and setting. In cells and extracts the contact can be indirect. A result given as binding can be weak or reduced; the word gives no strength. Sequences can lack the tags named with a protein.

In this assay the target is T1, Warts (Wts), Myc-tagged (Drosophila) (UniProt Q9VA38).
T1 sequence: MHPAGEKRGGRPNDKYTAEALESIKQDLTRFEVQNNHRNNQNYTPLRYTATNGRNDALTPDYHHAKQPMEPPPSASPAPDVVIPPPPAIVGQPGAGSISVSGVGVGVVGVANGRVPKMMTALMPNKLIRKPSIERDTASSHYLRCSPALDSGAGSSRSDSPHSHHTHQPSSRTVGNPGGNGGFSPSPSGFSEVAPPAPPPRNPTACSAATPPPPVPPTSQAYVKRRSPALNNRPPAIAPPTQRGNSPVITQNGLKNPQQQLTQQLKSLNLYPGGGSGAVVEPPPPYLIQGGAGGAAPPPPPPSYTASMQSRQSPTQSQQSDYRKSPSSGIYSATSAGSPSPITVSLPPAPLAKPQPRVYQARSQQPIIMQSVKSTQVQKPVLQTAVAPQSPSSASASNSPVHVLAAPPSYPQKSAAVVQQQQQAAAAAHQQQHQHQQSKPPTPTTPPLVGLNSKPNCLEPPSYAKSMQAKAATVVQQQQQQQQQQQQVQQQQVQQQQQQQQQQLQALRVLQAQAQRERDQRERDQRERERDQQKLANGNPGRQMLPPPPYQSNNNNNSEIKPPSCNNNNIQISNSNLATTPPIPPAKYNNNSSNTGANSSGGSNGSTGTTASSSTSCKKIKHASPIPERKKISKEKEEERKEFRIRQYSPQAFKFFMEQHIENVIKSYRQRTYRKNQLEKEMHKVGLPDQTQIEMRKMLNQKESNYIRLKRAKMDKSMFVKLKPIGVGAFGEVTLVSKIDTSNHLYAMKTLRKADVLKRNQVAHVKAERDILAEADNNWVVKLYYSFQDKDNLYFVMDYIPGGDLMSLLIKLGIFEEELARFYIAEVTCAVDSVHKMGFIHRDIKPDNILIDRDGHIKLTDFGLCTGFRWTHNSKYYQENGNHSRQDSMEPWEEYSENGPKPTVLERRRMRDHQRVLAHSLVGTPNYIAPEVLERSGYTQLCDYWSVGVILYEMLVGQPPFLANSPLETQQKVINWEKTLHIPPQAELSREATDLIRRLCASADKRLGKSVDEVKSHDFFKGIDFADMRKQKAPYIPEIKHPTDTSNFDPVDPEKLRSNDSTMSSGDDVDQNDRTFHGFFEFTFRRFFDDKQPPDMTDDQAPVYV
Nature of the assay: co-IP; HA-Hppy and Myc-Wts coexpressed in Drosophila S2 cells; immunoprecipitation and western blot as in ref. 33; which protein was precipitated is not told. On the technique in general: In western blotting, separated proteins are transferred to a membrane and probed.

Take “Happyhour (Hppy), HA-tagged (Drosophila) (enzyme)”: the binding result was “binds”.
